This note sets out measurements from patent US6630496B1, “Inhibitors of phospholipase enzymes” (Genetics Institute LLC, priority 1996, dated 2003).

Sequences of proteins named here, by UniProt entry; tags and fusion partners are left off.
UniProt P47712, whole entry: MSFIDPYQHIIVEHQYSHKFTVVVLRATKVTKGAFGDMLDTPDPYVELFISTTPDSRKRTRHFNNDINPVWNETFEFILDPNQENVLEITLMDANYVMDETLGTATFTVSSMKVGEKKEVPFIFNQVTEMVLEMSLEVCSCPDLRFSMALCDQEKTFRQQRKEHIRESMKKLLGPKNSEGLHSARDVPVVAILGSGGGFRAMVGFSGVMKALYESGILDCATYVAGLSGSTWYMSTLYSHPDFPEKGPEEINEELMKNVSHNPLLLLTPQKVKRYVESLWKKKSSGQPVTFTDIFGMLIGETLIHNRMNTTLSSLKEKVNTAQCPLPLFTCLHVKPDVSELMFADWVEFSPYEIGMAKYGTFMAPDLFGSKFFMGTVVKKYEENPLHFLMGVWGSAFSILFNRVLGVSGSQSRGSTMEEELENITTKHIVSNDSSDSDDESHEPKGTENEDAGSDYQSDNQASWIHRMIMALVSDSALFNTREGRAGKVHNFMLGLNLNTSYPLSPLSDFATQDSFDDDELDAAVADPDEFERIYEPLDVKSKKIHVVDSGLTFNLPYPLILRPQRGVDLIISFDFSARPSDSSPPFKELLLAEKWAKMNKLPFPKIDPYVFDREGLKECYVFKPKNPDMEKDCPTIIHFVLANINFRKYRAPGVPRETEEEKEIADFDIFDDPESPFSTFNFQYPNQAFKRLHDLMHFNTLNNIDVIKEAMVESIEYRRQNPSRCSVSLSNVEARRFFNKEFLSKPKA

SMILES strings stand for the structures. “And” between values parts separate entries of the source, which are not always exact repeats. Equal entries are not always repeated. The structures given here were assigned with low confidence; some may be wrong.

The test addresses cPLA2 (Homo sapiens, UniProt P47712). Description: Activity assay of Example 136 (Table VIII; sub-assay not stated). Conditions: read-out: CONCENTRATION (micromolar) @ PERCENT INHIBITION 50; concentration paired with 50 percent inhibition. As to the method: Activity data for the compounds of Examples 88-135 are reported in Table VIII (assay described in Example 136).
1-palmitoyl-2-V^14C] arachidonyl phosphotidylcholine (58 mCi/mmol) (final concentration 6 μM) and 1,2-dioleyolglycerol (final concentration 3 μM) were mixed and dried under a stream of nitrogen. To the lipids was added 50 mM Hepes pH 7.5 (2×final concentration of lipids) and the suspension was sonicated for 3 min. at 4° C. To the suspension was added 50 mM Hepes pH 7.5, 300 mM NaCl, 2 mM DTT, 2 mM CaCl2 and 2 mg/ml bovine serum albumin (BSA) (Sigma A7511) (1.2×final concentration of lipids). A typical assay consisted of the lipid mixture (85 μl) to which was added consecutively, the inhibitor (5 μl in DMSO) and cPLA2, 10 ng for an automated system or 1 ng for a manual assay, in 10 μl of the BSA buffer. This assay was conducted by either the manual assay or automated assay protocol described below.
1-[^14C]-palmitoyl-2-hydroxyphosphotidyl-choline (57 mCi/mmol) (final concentration 4.4 μM) was dried under a stream of nitrogen. […]
7-hydroxycoumarinyl 6-heptenoate was used as a monomeric substrate for cPLA2 as reported previously (Huang, Z. et al., 1994, Analytical Biochemistry 222, 110-115). […] Hydrolysis of the 7-hydroxycoumarinyl 6-heptenoate ester was monitored in a fluorometer by exciting at 360 nm and monitoring emission at 460 nm. […]

As to `O=C(O)/C=C/c1cc2cc(OCc3ccccc3)ccc2n1Cc1ccc2ccccc2c1`, the IC50 is 12.5 µM and 15 µM.
